Measurements from the supplement of paper PMC6411743.
± gives the standard deviation of the averaged measurements. This is one part of the list.

Biological target: T1, UniProt Q9Y232 and related entries
T1 sequence (whole entry): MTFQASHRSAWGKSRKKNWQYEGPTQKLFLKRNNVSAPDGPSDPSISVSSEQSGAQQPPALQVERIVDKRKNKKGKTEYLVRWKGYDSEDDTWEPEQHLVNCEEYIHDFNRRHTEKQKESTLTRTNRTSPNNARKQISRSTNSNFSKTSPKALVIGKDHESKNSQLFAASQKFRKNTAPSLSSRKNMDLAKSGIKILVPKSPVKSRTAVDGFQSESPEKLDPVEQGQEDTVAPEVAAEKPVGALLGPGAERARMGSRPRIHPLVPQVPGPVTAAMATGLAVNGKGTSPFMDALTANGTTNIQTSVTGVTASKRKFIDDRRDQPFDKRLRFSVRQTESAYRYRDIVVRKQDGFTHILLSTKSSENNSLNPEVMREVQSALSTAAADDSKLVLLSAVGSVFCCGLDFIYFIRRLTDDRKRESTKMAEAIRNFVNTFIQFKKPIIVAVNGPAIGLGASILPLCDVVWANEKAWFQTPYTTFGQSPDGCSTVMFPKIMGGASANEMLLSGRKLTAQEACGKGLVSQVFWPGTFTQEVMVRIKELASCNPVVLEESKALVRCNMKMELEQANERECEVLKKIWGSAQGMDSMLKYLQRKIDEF
Assay: NP40-soluble protein abundance relative to vehicle (solubility fold change) (ratio); higher = more soluble protein in presence of GTP
Experimental: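 Solubility proteome profiling in Jurkat crude lysate. Lysate was treated with Mg-GTP (0.1-10 mM) for 10 min at room temperature and 3 min at 37 °C, then solubilised with 0.8% NP40 and benzonase, followed by ultracentrifugation. Proteins were quantified by TMT10 LC-MS/MS; the value is the NP40-soluble abundance relative to the NP40-processed vehicle, from 3 independent experiments.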

Structure (SMILES): Nc1nc2c(ncn2[C@@H]2O[C@H](COP(=O)(O)OP(=O)(O)OP(=O)(O)O)[C@@H](O)[C@H]2O)c(=O)[nH]1 [guanosine triphosphate]
- NP40-soluble protein abundance (concentration: 0.1mM): 0.95 ± 0.021
- NP40-soluble protein abundance (concentration: 0.5mM): 0.918 ± 0.03
- NP40-soluble protein abundance (concentration: 1mM): 1.02 ± 0.15
- NP40-soluble protein abundance (concentration: 2mM): 1.04 ± 0.18
- NP40-soluble protein abundance (concentration: 4mM): 1.13 ± 0.29
- NP40-soluble protein abundance (concentration: 6mM): 1.07 ± 0.28
- NP40-soluble protein abundance (concentration: 8mM): 1.14 ± 0.32
- NP40-soluble protein abundance (concentration: 10mM): 1.23 ± 0.34
